Experiment [1] has as its target recombinant HOATZ-FLAG (mouse) (UniProt Q80Y73). Briefly: sucrose density gradient centrifugation; whole-cell lysate of 293T cells overexpressing HOATZ-FLAG fractionated on a sucrose gradient; western blot of the fractions. (In western blotting, separated proteins are transferred to a membrane and probed.)
Experiment [2] concerns the target HOATZ (Hoatzin; product of 4833427G06Rik) (mouse (endogenous in testis)) (UniProt Q80Y73). Briefly: co-IP; testis lysates immunoprecipitated with the anti-HOATZ antibody; eluates blotted for ENO4 and HOATZ.

Chains of the proteins cited; added tags and fusions are not shown.
UniProt Q80Y73: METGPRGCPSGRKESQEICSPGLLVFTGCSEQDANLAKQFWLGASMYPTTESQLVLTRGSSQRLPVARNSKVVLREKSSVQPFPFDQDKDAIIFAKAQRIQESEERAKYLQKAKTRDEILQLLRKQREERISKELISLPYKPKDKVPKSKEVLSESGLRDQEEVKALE

No constants are given. Whether binding was seen depends on the method and setting. For some assays here: In cells and extracts the contact can be indirect. Some results given as binding are weak or reduced against the parent protein; the word gives no strength.

On to “recombinant HOATZ-FLAG (from UniProt Q80Y73 1-168)”, for which the binding result in experiment [1] is “no binding”.

B1: enolase 4 (ENO4) (enzyme, UniProt Q8C042 1-619)
chain: MGDEDGGRRGGITRDLQKLKQQAMAYYQENDVPRKLEDLLNSTFYLQPADVYGHLKANYFSKLAKPPSICKIVGKTILDGLGLPTLQVEISCTIQNFPKYICAVAIPTHFEVVENALPEALDAEDSERAQAVNTAVQWINQSITEELWGLVPSNQAEVDHRLRTFFEHKVQEDKERKELEKSQEELVPAPPPVTLPPPPPPPPPPPSKKKGQKAGRRDTLLEKPVSPPEPPEPVLHGSMAIGAVSLAVAKASATLASDPLYLTLASLKHDQEQPSTFSMPLLMGSVLSCGKSSPGKLHLMKEVICIPSPGLTAKQSVELLLEIQKQVNRAMETLPPPKQETKKGHNGSKRAQPPITGKVSHLGCLTINYDAIEQPLLLLQGICSNLGLELGVNFHLAINCAGHELMDYSKGKYEVMVGTHKSAAEMVELYVDLINKYPSIIALIDPFRKEDAEQWDSLYAALASRCYLIAGAASGSVSKLLECRNISTLKSHGLIIKHTNQTTMSDLVEITHLINGKKLLAVFGSTDSESSDDSLVDLAVGFGARFIKLGGLSRGERMTKYNRLLAIEEELIQRGVWGFSEEHNFSFFQEDATATMAEETLGLLDSIFPTEVIEESAKT
As for B1, the binding result in experiment [2] is “binds”.
